PubChem BioAssay AID1053208 – Peter MacCallum Cancer Centre, 2014

- Aim: 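Synthetic lethal interactions between gene loss and doxorubicin in osteosarcoma cells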 (primary screen)
- Cells: mouse osteosarcoma cells, early-passage culture from an engineered mouse model of fibroblastic bone tumour
- Knock-down reagent: siRNA pool against mouse genes, 40 nM
- Duration: about 120 h (48 h before drug, then 72 h with drug)
- Treatment: doxorubicin 100 nM for 72 h, roughly 30-40% inhibitory dose
- Detection: 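Viability read as ATP luminescence after 72 h of 100 nM doxorubicin or none, duplicate wells averaged, scaled to non-targeting siRNA, then expressed as robust z-scores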
- Scale: viability z-score with doxorubicin and doxorubicin viability vs non-targeting: higher = more viable cells under doxorubicin; viability z-score without drug: higher = more viable cells with knock-down alone; z-score of drug to no-drug ratio: higher = less drug sensitisation by knock-down
- Active means: 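a pool counts as active when its viability z-score with doxorubicin is -2 or below and its z-score without drug lies between -2 and 2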
The whole screen tested about 17,000 reagents; this is a part drawn at random. Of all reagents, 788 (4.7%) got an active call. 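Calls rest on z-score classes alone; an extra cut-off of viability at most 70% of control was not applied to them.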 Unmarked entries are inactive. The numbers tell different reagents against one gene apart. Some reagents were tested in more than one well and are listed for each.

no.	target gene	reagent no.	combined z-score class	viability z-score with doxorubicin	viability z-score without drug	z-score of drug to no-drug ratio	doxorubicin viability vs non-targeting
1	Galk1 (galactokinase 1)	1	no change with or without drug	0.9	-0.17	1.24	1.02
2	Ce9 (immunoglobulin light chain variable region)	1	no change with or without drug	0.9	0.84	0.45	1.02
3	Frk (fyn-related kinase)	1	no change with or without drug	0	-0.17	0.22	0.94
4	Prl3a1 (prolactin family 3, subfamily a, member 1)	1	no change with or without drug	1.01	0.84	0.56	1.03
5	Grk5 (G protein-coupled receptor kinase 5)	1	no change with or without drug	1.12	1.85	0	1.04
6	Grk5 (G protein-coupled receptor kinase 5)	1	no change with or without drug	-1.12	-0.84	-0.56	0.84
7	Cartpt (CART prepropeptide)	1	no change with or without drug	-0.45	0.51	-0.67	0.9

Continued; the last 2 above are carried over.
no.	target gene	reagent no.	combined z-score class	viability z-score with doxorubicin	viability z-score without drug	z-score of drug to no-drug ratio	doxorubicin viability vs non-targeting
6	Grk5 (G protein-coupled receptor kinase 5)	1	no change with or without drug	-1.12	-0.84	-0.56	0.84
7	Cartpt (CART prepropeptide)	1	no change with or without drug	-0.45	0.51	-0.67	0.9
8	Cimip2b (ciliary microtubule inner protein 2B)	1	no change with or without drug	0	0.34	-0.11	0.94
9	Klf9 (Kruppel-like transcription factor 9)	1	no change with or without drug	-0.79	-0.51	-0.34	0.87
10	Or12e7 (olfactory receptor family 12 subfamily E member 7)	1	no change with or without drug	0.22	-1.18	1.24	0.96
11	Tspan1 (tetraspanin 1)	1	no change with or without drug	1.01	1.18	0.34	1.03
12	Zfp418 (zinc finger protein 418)	1	no change with or without drug	-1.01	-1.35	0	0.85
13	Vkorc1l1 (vitamin K epoxide reductase complex, subunit 1-like 1)	1	no change with or without drug	-1.57	-0.17	-1.46	0.8
14	Cntln (centlein, centrosomal protein)	1	high cell count without drug only	-1.12	2.02	-2.14	0.84
15	Acnat2 (acyl-coenzyme A amino acid N-acyltransferase 2)	1	low cell count with doxorubicin only (active)	-2.02	-0.51	-1.69	0.76
16	Ccdc71 (coiled-coil domain containing 71)	1	no change with or without drug	0.11	0.84	-0.34	0.95
17	Spmip4 (sperm microtubule inner protein 4)	1	no change with or without drug	0.22	-1.18	1.24	0.96
18	Zfp385a (zinc finger protein 385A)	1	no change with or without drug	0	-1.18	1.01	0.94
19	Slc8a1	1	no change with or without drug	0	-0.67	0.56	0.94
20	Slc8a1	2	no change with or without drug	1.24	1.85	0.11	1.05
